Library screening results

The values are deposited in ChEMBL (CHEMBL3988442, “University of Dundee, Small-Polar-MMV Screening Library” (2021)).

Values are the deposited “Percent Effect”, in %.
How 0% and 100% were set is not recorded. Most values in the screen are low, and negative values occur.
Compounds were drawn at random from those tested, without regard to their results.

A: 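Whole-cell assay for inhibitors of Mycobacterium tuberculosis growth, labelled Cornell in the record; the read-out is not stated. The concentration is filed as 10 mM, unlikely as a test dose, so the dose is not known. Higher means stronger inhibition (inferred from two other growth screens of the library). About 53,000 compounds were tested under these conditions; 1.7% (about 900) showed 50% or more at least once.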
B: 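Assay on Mycobacterium tuberculosis, filed only as a heat shock assay from Cornell; the read-out is not stated. The concentration is filed as 10 mM, unlikely as a test dose, so the dose is not known. Direction is inferred from retests: higher values go with stronger inhibition. About 69,000 compounds were tested under these conditions; 1.4% (about 930) showed 50% or more at least once.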

With [H][C@@]12CS(=O)(=O)C[C@]1([H])N(Cc1ccc(F)c(C)c1)CCN2C(=O)C(C)C the screen gave A: -44.28%; B: 0.6811%. CS(=O)(=O)c1cn[nH]c1C1CCCN(C(=O)CN2CCOCC2)C1 (centres unmarked) gave A: 0.2335%; B: 17.82%. With CN(C)c1cc(C(=O)Nc2ccccc2C(=O)NC(C)(C)C)ccn1 the screen gave B: -7.682%. CCOC(C)c1nccn1Cc1cc(C)on1 (centres unmarked) read A: -0.2172%; B: 6.803%. CCNC(=O)[C@@H]1C[C@H](NC(=O)c2cc(=O)[nH]c3ccc(C)cc23)CN1C read B: 6.709%.

CC(C)C(C(=O)N1CCN(c2ccncc2)CC1)n1cncn1 (centres unmarked) read A: 20.45%; B: -5.069%. For N#CC1C(=O)Nc2c(cnn2C2CCCC2)C12CCCC2 (centres unmarked) the result was B: -3.852%. Result for CC1=C(C(=O)N2CCCC(Cn3cc(CO)nn3)C2)OCCO1 (centres unmarked) was A: 19.93%; B: -1.568%. Result for CC(NC1(CNC(=O)C(C)(C)C#N)CCOCC1)c1ccccc1 (centres unmarked) was A: -9.655%; B: -17.37%. For CCN1CCCC1CNC(=O)c1cc(COc2cccc(F)c2)[nH]n1 (centres unmarked) the result was A: -9.939%; B: -4.407%.

With CC(C)c1cc(CN2CCC(N)CC2)on1 the screen gave A: -24.22%; B: -5.497%. With CC(C)c1ccc(OCCC(=O)N(C)CC(N)=O)cc1 the screen gave A: 18.9%; B: -0.6359%. Result for Cn1nc2c(cc1=O)CN(c1ncnc3sccc13)CC2 was B: 21.04%. Result for Cc1cc(C(=O)N(C)C(C)CC(C)C)on1 (centres unmarked) was A: 35.97%; B: 12.99%. COCCC(=O)N1CCC2(COCc3cnc(-c4ccccc4)nc32)C1 (centres unmarked) read B: 6.604%.

With O=C(NCc1nnc2n1CCC2)c1cn(-c2cccc(Br)c2)nn1 the screen gave B: 2.093%. Cc1cccc(CN2CC3C[C@]3(NC(=O)c3ccco3)C2)n1 (some centres unmarked) gave A: -9.527%; B: -16.21%. With CC(Nc1ncnc2c1CCNC2)c1ccc2c(c1)CCCC2 (centres unmarked) the screen gave A: 19.61%; B: 37.12%. Result for Cl.Cl.OC(CN1CCN(Cc2cc(F)cc(F)c2)CC1)C1CC1 (centres unmarked) was A: -13.49%; B: -3.837%. Fc1ccc(CN2CCC3(CC2)CCN(Cc2nccs2)CC3)cc1.O=C(O)C(F)(F)F.O=C(O)C(F)(F)F gave A: 9.826%; B: -10.14%.

Cn1c(CNc2c(F)cccc2-n2cccn2)cc(=O)n(C)c1=O read A: 15.02%; B: 6.656%. With COCCNC(=O)c1cc(C(C)C)nc(N2CCCCC2)n1 the screen gave B: 11.11%. COC1CCN(C(=O)Cc2csc(-c3ncccn3)n2)CC1 read B: -5.708%. Result for Cc1ccccc1SC1CCN(C(=O)[C@@H]2C[C@@H](N)CN2)CC1 was B: 2.726%. CCn1cc(CN2CCC(CCC(=O)Nc3ccccc3Cl)CC2)cn1 read A: -44.11%; B: 1.889%.

CC(C)(C(=O)NCCS(N)(=O)=O)c1cccc(Br)c1 gave A: 8.691%; B: -1.874%. O=C(CCc1cccs1)N1CCC(Nc2cccnn2)CC1 read A: 0.4144%; B: -33.55%. With CN(CC(F)(F)F)C(=O)Cn1cc(NC(=O)C(C)(C)C)cn1 the screen gave B: 6.992%. Cc1ccc(N2CCc3sc(C(=O)NCCN4CCCC4)cc32)nn1 gave B: -35.84%. Result for Cc1ccc(CNc2ccccc2-n2ccc(C)n2)nc1 was A: -9.941%; B: 73.74%.

Result for CCCNC(=O)c1cncc(CC2CCCN(C)C2)c1 (centres unmarked) was A: -32.48%; B: -12.4%. CCc1ncc2c(n1)CN(CC(=O)NC1CCCCNC1=O)CC2 (centres unmarked) read A: 18.19%; B: -14.06%. With CCn1cc(NC(=O)C2CCN(CC(=O)N3CCOCC3)CC2)cn1 the screen gave A: 22.91%; B: 12.33%. Cc1cc(C2CCC2)nc(N2CCC3(CC2)OCCCC3O)n1 (centres unmarked) gave A: -14.55%; B: 15.95%. COc1ccc(C(=O)C2CCCN(c3nccc(N)n3)C2)c(C)c1 (centres unmarked) gave A: 10.55%; B: -0.1384%.

With Cc1c(Cl)c(C(=O)NN2CCOCC2)nn1C the screen gave A: 22.86%; B: 7.568%. Result for [H][C@]12CC[C@]([H])(CN(Cc3cc(C(C)(C)C)[nH]n3)C1)N(Cc1ccccn1)C2 was A: 16.99%; B: 82.46%. O=C(CN1CCCC(Cn2cncn2)C1)NCc1ccco1 (centres unmarked) gave A: 13.51%; B: -5.886%. Result for Cn1ccc(C(=O)NC2CCC23CCN(Cc2cnn(C)c2)CC3)c1.O=C(O)C(F)(F)F (centres unmarked) was A: 24.98%; B: 0.7459%. Result for O=C(NCc1nncn1C1CC1)Nc1ccc(OC2CCC2)c(F)c1 was A: 10.26%; B: 9.72%.

CC(=O)N1CCC2(C=C(C(=O)NC3CC3)c3ccccc32)CC1 gave A: 24.68%; B: -10.37%. For O=C(NCc1ccccc1-n1cccn1)N1CCN2CCCCC2C1 (centres unmarked) the result was B: 3.804%. O=C(NS(=O)(=O)Cc1ccc(F)cc1)C1CCc2ccccc21 (centres unmarked) gave A: 26.09%; B: 9.355%. For Cc1cc(C)n(CCC2CC(=O)Nc3cc4[nH]ncc4cc32)n1 (centres unmarked) the result was A: 11.4%; B: 17.45%. With [H][C@@]12CO[C@@H](CNS(C)(=O)=O)[C@]1([H])CCN(C(=O)c1ccc[nH]1)C2 the screen gave A: 24.7%; B: 2.191%.

With CCc1nnc2n1CCN(Cc1ncc(-c3ccc(F)cc3)o1)C2 the screen gave B: -9.541%. With CNC(=O)Cc1noc(-c2cc3c(s2)CCCC3)n1 the screen gave A: 9.565%; B: -4.216%.